Source: PMC7950270
Results are given in words; binding and its absence hold for the method and conditions named. Binding seen in cells or lysates may run through a third protein. Some entries that bind do so weakly or less than the wild type.

Amino acid sequences for entries named in this document (tags omitted). Residues count along the entry.
UniProt O00206, residues 24-839: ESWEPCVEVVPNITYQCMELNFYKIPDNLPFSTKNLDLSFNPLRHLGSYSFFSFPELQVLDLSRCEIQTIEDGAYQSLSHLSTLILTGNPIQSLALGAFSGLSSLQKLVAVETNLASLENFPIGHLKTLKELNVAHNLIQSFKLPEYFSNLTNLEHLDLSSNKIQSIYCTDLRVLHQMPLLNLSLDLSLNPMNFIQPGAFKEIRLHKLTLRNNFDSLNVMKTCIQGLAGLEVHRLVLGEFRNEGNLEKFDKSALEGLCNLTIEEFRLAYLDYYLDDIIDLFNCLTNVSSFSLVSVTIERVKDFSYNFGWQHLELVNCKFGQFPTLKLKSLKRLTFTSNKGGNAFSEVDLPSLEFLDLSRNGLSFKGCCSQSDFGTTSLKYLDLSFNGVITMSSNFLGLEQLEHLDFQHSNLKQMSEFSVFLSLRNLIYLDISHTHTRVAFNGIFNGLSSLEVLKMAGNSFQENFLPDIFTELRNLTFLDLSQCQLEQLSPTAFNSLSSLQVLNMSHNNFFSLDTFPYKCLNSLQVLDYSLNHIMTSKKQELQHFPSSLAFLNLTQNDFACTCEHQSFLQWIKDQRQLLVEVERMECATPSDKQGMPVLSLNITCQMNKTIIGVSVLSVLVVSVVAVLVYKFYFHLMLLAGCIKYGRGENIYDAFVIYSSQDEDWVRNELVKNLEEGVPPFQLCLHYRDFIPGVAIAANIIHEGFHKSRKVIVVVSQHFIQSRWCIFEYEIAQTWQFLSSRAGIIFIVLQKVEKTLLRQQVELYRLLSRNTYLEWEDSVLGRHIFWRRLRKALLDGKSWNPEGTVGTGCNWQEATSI

Molecular target: Toll-like receptor 4 (human (endogenous in primary OA chondrocytes)) (UniProt O00206)
Test: co-IP; lysate of primary human OA chondrocytes incubated with anti-TLR4 antibody, G-sepharose beads at 4 C overnight, MD-2 detected by immunoblot; cells untreated, treated with LPS (1 ug/mL, 2 h), with Linarin pretreatment plus LPS, or with Linarin alone

- binding: binds
B1: myeloid differentiation protein-2 (protein, UniProt Q9Y6Y9 19-160)
chain: QKQYWVCNSSDASISYTYCDKMQYPISINVNPCIELKRSKGLLHIFYIPRRDLKQLYFNLYITVNTMNLPKRKEVICRGSDDDYSFCRALKGETVNTTISFSFKGIKFSKGKYKCVVEAISGSPEEMLFCLEFVILHQPNSN
